Measurements: paper PMC5314769, “Structural insights into dynamics of RecU–HJ complex formation elucidates key role of NTR and stalk region toward formation of reactive state” (Nucleic Acids Research, 2016)
For at least one entry, the source does not settle the construct or the ends of the probe. The direction of at least one scale is not stated here. Where a protein sequence is shown, tags need not be part of it.

Molecular target: T1, RecU D88N (Bacillus subtilis) (UniProt P39792)
T1 sequence (looked up, limits assumed): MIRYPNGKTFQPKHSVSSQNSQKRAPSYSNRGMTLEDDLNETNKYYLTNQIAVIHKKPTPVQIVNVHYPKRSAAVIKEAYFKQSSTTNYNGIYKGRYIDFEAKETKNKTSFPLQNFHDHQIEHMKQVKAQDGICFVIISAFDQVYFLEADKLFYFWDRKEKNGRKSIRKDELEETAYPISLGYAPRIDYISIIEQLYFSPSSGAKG
Assay: thermofluor
Settings: 1:1 molar ratio; Thermofluor: 100 mM MES pH 6.5, 5 ug RecU D88N per well, DNA 1:1 molar, Sypro orange, 25-100 C in 1 C steps; crystals: 0.1 M BICINE pH 9, 10% PEG 6000, 17 C; recombinant protein

Question: How did the binding signal turn out when “ACGCAATTGCGT (double strand) [12 bp palindromic duplex]” was run?
Answer: The binding signal was 0.75 delta Tm, C.
